Data published in article PMC12678834.
These are yes or no findings as the source states them, for the method shown. In cells and extracts the contact can be indirect. Some results given as binding are weak or reduced against the parent protein; the word gives no strength. Where a sequence is shown, tags or fusion partners need not be part of it.

Chains of the proteins cited; added tags and fusions are not shown. Lines headed by an entry give the natural chain unless they say otherwise; changes in a name come on top. A line that says so, or that is headed by a name, gives the form on record, which may keep a tag or linker. Residues count along the entry.
DLL1-mTQ2-HA (human Delta-like 1) (O00548, residues 18-723): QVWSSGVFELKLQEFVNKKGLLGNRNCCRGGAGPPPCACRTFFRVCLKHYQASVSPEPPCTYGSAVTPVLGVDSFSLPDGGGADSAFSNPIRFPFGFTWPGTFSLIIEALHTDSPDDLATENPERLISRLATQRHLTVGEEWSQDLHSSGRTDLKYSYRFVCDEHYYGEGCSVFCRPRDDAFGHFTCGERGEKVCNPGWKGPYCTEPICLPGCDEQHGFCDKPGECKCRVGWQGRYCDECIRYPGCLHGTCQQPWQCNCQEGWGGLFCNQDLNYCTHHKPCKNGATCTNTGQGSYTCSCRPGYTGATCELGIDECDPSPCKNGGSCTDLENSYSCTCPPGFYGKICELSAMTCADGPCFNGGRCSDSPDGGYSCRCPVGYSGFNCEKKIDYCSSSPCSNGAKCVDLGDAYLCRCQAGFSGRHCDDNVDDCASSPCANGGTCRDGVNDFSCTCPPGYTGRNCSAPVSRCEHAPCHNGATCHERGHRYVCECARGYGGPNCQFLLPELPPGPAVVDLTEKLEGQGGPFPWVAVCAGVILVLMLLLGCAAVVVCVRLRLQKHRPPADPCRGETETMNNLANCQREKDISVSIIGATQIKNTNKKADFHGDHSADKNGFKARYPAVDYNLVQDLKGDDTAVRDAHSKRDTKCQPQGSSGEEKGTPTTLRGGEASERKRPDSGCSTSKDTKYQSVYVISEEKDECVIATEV
DLL1-N2D-mTQ2-HA (human Delta-like 1 with the second N of the NxxN motif NLAN changed to D) (O00548, form named): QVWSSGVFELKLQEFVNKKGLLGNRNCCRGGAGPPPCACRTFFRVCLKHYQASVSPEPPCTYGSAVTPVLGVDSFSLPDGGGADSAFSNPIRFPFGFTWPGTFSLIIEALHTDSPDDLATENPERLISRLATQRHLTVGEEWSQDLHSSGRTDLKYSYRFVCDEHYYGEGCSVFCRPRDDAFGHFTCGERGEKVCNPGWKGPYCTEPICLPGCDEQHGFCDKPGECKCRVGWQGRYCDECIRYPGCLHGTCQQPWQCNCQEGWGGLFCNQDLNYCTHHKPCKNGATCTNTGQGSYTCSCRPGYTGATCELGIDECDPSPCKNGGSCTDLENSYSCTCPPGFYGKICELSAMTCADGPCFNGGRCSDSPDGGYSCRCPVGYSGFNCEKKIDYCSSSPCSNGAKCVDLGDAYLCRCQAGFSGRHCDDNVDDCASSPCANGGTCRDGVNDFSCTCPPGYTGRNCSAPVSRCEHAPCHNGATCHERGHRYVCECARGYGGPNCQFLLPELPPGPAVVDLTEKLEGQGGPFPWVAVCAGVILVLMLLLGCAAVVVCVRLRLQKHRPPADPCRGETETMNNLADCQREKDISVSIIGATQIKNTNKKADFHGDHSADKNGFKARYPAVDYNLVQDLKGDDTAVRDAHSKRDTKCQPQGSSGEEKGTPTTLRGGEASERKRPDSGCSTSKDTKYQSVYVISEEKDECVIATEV
JAG1-mTQ2-HA (human Jagged 1) (P78504, residues 34-1218): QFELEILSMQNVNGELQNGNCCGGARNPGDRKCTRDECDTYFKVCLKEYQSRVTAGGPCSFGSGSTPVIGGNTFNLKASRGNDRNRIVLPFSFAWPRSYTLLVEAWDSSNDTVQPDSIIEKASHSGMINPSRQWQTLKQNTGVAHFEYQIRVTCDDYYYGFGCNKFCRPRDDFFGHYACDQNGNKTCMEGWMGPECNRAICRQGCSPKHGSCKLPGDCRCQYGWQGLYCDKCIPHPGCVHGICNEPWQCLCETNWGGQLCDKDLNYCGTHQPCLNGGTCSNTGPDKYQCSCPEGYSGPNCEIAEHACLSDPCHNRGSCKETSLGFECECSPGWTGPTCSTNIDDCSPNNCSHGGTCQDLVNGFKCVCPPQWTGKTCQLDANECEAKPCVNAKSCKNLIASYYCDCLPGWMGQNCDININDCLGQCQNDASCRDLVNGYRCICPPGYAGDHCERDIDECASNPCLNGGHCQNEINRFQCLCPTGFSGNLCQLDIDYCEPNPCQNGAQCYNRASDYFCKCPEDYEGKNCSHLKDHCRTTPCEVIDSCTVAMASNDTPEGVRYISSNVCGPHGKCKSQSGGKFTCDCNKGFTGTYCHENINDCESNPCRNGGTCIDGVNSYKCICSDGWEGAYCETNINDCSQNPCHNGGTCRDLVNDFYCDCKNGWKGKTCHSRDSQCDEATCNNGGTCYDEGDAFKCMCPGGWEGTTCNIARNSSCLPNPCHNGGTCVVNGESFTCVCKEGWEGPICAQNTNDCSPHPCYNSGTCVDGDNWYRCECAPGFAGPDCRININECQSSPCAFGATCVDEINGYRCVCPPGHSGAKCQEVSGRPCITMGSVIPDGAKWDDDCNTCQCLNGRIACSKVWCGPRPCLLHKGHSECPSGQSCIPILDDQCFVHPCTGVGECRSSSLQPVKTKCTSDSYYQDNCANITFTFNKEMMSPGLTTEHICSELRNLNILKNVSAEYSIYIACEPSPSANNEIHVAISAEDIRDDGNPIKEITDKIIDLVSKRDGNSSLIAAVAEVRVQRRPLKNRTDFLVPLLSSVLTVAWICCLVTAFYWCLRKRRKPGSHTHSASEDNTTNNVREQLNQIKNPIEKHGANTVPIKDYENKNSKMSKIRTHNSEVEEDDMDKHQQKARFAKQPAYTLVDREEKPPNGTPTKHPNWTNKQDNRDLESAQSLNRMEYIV
JAG1-N2A-mTQ2-HA (human Jagged 1 with the first N of the NxxN motif NTTN changed to A) (P78504, form named): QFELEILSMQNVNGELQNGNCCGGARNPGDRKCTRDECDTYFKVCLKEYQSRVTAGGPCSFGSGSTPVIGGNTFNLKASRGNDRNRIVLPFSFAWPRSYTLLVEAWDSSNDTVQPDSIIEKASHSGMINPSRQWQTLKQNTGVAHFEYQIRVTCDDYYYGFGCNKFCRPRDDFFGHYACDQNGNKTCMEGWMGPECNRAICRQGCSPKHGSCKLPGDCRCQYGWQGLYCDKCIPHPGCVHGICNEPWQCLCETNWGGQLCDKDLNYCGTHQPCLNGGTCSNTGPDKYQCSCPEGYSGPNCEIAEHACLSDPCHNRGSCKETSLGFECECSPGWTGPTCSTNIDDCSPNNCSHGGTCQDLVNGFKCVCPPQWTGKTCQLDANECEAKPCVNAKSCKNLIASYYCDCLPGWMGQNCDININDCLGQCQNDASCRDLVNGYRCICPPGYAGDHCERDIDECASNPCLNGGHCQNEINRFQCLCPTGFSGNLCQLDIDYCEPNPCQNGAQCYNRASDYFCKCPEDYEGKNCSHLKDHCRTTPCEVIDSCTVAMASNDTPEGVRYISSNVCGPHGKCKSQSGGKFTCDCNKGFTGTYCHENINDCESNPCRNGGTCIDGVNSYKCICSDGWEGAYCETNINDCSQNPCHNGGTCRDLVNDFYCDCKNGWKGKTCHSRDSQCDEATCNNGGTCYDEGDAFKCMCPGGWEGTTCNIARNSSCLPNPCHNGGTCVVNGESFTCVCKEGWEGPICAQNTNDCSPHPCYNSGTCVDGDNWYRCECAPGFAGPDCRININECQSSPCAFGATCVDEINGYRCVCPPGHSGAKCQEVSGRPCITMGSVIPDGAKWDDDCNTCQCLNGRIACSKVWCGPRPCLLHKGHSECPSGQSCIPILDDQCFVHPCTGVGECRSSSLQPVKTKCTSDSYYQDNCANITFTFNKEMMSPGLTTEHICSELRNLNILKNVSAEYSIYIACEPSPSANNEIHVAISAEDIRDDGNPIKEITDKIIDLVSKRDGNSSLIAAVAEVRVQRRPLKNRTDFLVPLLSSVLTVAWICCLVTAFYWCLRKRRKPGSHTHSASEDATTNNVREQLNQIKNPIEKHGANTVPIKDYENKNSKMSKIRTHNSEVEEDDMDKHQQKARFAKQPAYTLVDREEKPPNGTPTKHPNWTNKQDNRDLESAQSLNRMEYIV
DLL4-mTQ2-HA (human Delta-like 4) (Q9NR61, residues 27-685): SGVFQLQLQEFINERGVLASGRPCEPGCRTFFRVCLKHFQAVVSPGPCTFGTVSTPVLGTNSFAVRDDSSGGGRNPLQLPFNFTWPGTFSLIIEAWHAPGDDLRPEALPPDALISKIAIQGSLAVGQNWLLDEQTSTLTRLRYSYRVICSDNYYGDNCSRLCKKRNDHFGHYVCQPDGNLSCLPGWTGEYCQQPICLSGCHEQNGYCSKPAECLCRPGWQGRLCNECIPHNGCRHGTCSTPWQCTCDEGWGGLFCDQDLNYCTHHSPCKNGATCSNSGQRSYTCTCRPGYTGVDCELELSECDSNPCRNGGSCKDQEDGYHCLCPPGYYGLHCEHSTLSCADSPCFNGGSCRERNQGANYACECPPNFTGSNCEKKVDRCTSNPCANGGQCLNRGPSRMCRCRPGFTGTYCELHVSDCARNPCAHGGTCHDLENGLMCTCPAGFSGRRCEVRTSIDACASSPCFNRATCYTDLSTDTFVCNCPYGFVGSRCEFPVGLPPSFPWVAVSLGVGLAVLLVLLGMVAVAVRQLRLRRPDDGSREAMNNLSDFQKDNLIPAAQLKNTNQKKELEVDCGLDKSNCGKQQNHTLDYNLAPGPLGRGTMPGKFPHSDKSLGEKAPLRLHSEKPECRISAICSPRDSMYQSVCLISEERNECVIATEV
DLL4-D2N-mTQ2-HA (human Delta-like 4 with the D of the cryptic motif NLSD changed to N) (Q9NR61, form named): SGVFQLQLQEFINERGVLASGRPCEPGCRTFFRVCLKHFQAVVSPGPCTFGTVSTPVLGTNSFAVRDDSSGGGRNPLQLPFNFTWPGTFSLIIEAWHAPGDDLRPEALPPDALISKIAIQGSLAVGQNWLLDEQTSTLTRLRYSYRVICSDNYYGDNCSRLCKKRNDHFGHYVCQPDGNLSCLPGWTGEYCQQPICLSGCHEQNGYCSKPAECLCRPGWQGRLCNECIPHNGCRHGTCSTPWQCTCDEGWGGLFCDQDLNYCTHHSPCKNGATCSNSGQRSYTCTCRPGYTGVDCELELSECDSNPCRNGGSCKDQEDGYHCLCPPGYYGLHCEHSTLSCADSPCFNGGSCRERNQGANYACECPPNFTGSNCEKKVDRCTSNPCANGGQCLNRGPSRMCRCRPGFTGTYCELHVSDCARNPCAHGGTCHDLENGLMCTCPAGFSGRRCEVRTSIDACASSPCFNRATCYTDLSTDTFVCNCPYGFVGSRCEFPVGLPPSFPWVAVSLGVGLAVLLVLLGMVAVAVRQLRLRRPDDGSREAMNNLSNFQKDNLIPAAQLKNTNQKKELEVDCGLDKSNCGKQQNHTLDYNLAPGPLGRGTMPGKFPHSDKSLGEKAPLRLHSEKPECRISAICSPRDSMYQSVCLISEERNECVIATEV

The substances below were run against T1, NEURL1-mCherry-FLAG (human Neuralized-like 1) (human) (UniProt O76050) (assay: co-IP; NEURL1-mCherry-FLAG as bait, precipitated with mouse anti-FLAG M2 and anti-mouse IgG-agarose beads from 1 mg cell lysate (50 mM Hepes pH 7.5, 3 mM EDTA, 3 mM CaCl2, 80 mM NaCl, 1% Triton), 18 h at 4 °C; co-precipitated HA-tagged ligands detected by anti-HA Western blot).
T1 sequence: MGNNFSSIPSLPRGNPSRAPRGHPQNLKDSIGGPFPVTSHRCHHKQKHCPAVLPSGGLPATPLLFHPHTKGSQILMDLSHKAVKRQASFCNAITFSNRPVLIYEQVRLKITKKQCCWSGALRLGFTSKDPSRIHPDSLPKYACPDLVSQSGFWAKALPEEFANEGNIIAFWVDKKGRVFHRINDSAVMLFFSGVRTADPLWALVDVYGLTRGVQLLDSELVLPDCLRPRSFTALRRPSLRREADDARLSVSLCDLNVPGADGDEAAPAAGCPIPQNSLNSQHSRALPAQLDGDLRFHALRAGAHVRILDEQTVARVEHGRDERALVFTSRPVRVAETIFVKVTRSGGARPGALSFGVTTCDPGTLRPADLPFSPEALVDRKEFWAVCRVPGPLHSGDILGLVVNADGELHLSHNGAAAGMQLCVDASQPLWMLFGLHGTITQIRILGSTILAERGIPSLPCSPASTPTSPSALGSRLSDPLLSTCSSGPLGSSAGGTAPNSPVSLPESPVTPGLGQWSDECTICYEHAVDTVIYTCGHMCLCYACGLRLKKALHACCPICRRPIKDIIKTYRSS

| Substance | binding |
| --- | --- |
| DLL1-N2D-mTQ2-HA (human Delta-like 1 with the second N of the NxxN motif NLAN changed to D) (from UniProt O00548 18-723) (ligand) | binds |
| DLL1-mTQ2-HA (human Delta-like 1) (from UniProt O00548 18-723) (ligand) | binds |
| JAG1-N2A-mTQ2-HA (human Jagged 1 with the first N of the NxxN motif NTTN changed to A) (from UniProt P78504 34-1218) (ligand) | binds |

Other lines, results leading:

| binding | Substance |
| --- | --- |
| binds | DLL4-D2N-mTQ2-HA (human Delta-like 4 with the D of the cryptic motif NLSD changed to N) (from UniProt Q9NR61 27-685) (ligand) |
| binds | DLL4-mTQ2-HA (human Delta-like 4) (from UniProt Q9NR61 27-685) (ligand) |
| binds | JAG1-mTQ2-HA (human Jagged 1) (from UniProt P78504 34-1218) (ligand) |
